Data reported in the supplement of paper PMC3682954.
“And” between values parts separate entries of the source, which are not always exact repeats. Equal values may be shown once. Where a name gives a salt, the structure may show the parent alone. ± gives the standard deviation of the averaged measurements. Some of the results follow. Many values rest on one well or one pass, so single values are uncertain.

Tested on: RAW 264.7
Assay: cell viability (MTT) relative to vehicle control; higher = more viable cells
Details: stimulus: HMGB1 5 ug/ml, 18 h
[1] = compound concentration: 1 ug/ml

Structure (SMILES)	cell viability (compound concentration: 3 uM)	cell viability [1] [%]
CC(C)=CC[C@@H](O)C1=CC(=O)c2c(O)ccc(O)c2C1=O [Shikonin]	14.5%	
CC(O)C(O)[C@H]1CNc2nc(N)[nH]c(=O)c2N1 (stereo partly drawn) [(6R)-5,6,7,8-Tetrahydro-L-biopterin hydrochloride]	108%	
NC(=O)c1cc[n+](CC2=C(C(=O)[O-])N3C(=O)[C@@H](NC(=O)[C@@H](c4ccccc4)S(=O)(=O)O)[C@H]3SC2)cc1 [Cefsulodin sodium salt]	93.2%	
CC1=C(/C=C/C(C)=C/C=C/C(C)=C/C(=O)O)C(C)(C)CCC1 [Retinoic acid]	118 ± 9.3%	
CC1=C(/C=C/C(C)=C/C=C/C(C)=C/C(=O)O)C(C)(C)CCC1 [Retinoic Acid]	122%	
CC1=C(/C=C/C(C)=C/C=C/C(C)=C/C(=O)O)C(C)(C)CCC1	109 ± 1.6%	
NC[C@@H]1CC[C@@H](N)[C@@H](O[C@H]2[C@H](O)[C@@H](O[C@H]3O[C@H](CO)[C@@H](O)[C@H](N)[C@H]3O)[C@H](N)C[C@@H]2N)O1	111%	
CCC1(c2ccccc2)NC(=O)N(C)C1=O (centres undefined) [Mephenytoin]	103 ± 8.1%	
N[C@@H](CCC(=O)N[C@@H](CS)C(=O)NCC(=O)O)C(=O)O	109%	
CC1=C(C(=O)O)N2C(=O)[C@@H](NC(=O)[C@H](N)C3=CCC=CC3)[C@H]2SC1	108%	
CC1=C(C(=O)O)N2C(=O)[C@@H](NC(=O)[C@H](N)C3=CCC=CC3)[C@H]2SC1 [Cephradine]	105%	
COc1cc(C(=O)NCCCCCC(=O)O)cc(OC)c1OC	108%	
CC(=O)OCC1OC(Oc2cc(OC(C)=O)c3c(=O)cc(-c4ccc(OC(C)=O)c(OC(C)=O)c4)oc3c2)C(OC(C)=O)C(OC(C)=O)C1OC(C)=O (centres undefined)		99.1
NC(=O)CNCCC(c1ccccc1)c1ccccc1 [N-(3,3-Diphenylpropyl)glycinamide]	105%	
CCc1c(C)[nH]c2c1C(=O)C(CN1CCOCC1)CC2 (centres undefined) [Molindone hydrochloride]	93 ± 6.7%	
Nc1ccc(N2C(=O)c3ccccc3C2=O)c(Cl)c1 [N-(4-Amino-2-chlorophenyl)phthalimide]	101%	
CN1CCc2cc(Cl)c(O)cc2[C@@H](c2ccccc2)C1	95.1 ± 1.3%	
Cc1ncc(CO)c(CO)c1O [Pyridoxine hydrochloride]	116%	
Cc1ncc(CO)c(CO)c1O	108%	
COc1cc2c3cc1Oc1cc(ccc1O)C[C@@H]1c4c(cc(OC)c(O)c4Oc4ccc(cc4)C[C@@H]3N(C)CC2)CC[N+]1(C)C	104%	
CC1(C)[C@H](C(=O)O)N2C(=O)C[C@H]2S1(=O)=O [Sulbactam]	97.2 ± 3.3%	
Clc1ccc(CO/N=C(\Cn2ccnc2)c2ccc(Cl)cc2Cl)c(Cl)c1 [Oxiconazole Nitrate]	119%	
Clc1ccc(CO/N=C(\Cn2ccnc2)c2ccc(Cl)cc2Cl)c(Cl)c1 [Oxiconazole]	103%	
Clc1ccc(CO/N=C(\Cn2ccnc2)c2ccc(Cl)cc2Cl)c(Cl)c1	110 ± 1.4%	
O=C(O)C1CCCN(CCC=C(c2ccccc2)c2ccccc2)C1 (centres undefined)	112%	
CC(=O)O[C@]1(C(C)=O)CC[C@H]2[C@@H]3C=C(Cl)C4=CC(=O)[C@@H]5C[C@@H]5[C@]4(C)[C@H]3CC[C@@]21C [Cyproterone acetate]	99.3 ± 1.6%	105

Given with bars between the fields: entries from further up.
Structure (SMILES) | cell viability (compound concentration: 3 uM) | cell viability [1] [%]
CCC1(c2ccccc2)NC(=O)N(C)C1=O (centres undefined) [Mephenytoin] | 103 ± 8.1% | 
N[C@@H](CCC(=O)N[C@@H](CS)C(=O)NCC(=O)O)C(=O)O | 109% | 
CC1=C(C(=O)O)N2C(=O)[C@@H](NC(=O)[C@H](N)C3=CCC=CC3)[C@H]2SC1 | 108% | 
CC1=C(C(=O)O)N2C(=O)[C@@H](NC(=O)[C@H](N)C3=CCC=CC3)[C@H]2SC1 [Cephradine] | 105% | 
COc1cc(C(=O)NCCCCCC(=O)O)cc(OC)c1OC | 108% | 
CC(=O)OCC1OC(Oc2cc(OC(C)=O)c3c(=O)cc(-c4ccc(OC(C)=O)c(OC(C)=O)c4)oc3c2)C(OC(C)=O)C(OC(C)=O)C1OC(C)=O (centres undefined) |  | 99.1
NC(=O)CNCCC(c1ccccc1)c1ccccc1 [N-(3,3-Diphenylpropyl)glycinamide] | 105% | 
CCc1c(C)[nH]c2c1C(=O)C(CN1CCOCC1)CC2 (centres undefined) [Molindone hydrochloride] | 93 ± 6.7% | 
Nc1ccc(N2C(=O)c3ccccc3C2=O)c(Cl)c1 [N-(4-Amino-2-chlorophenyl)phthalimide] | 101% | 
CN1CCc2cc(Cl)c(O)cc2[C@@H](c2ccccc2)C1 | 95.1 ± 1.3% | 
Cc1ncc(CO)c(CO)c1O [Pyridoxine hydrochloride] | 116% | 
Cc1ncc(CO)c(CO)c1O | 108% | 
COc1cc2c3cc1Oc1cc(ccc1O)C[C@@H]1c4c(cc(OC)c(O)c4Oc4ccc(cc4)C[C@@H]3N(C)CC2)CC[N+]1(C)C | 104% | 
CC1(C)[C@H](C(=O)O)N2C(=O)C[C@H]2S1(=O)=O [Sulbactam] | 97.2 ± 3.3% | 
Clc1ccc(CO/N=C(\Cn2ccnc2)c2ccc(Cl)cc2Cl)c(Cl)c1 [Oxiconazole Nitrate] | 119% | 
Clc1ccc(CO/N=C(\Cn2ccnc2)c2ccc(Cl)cc2Cl)c(Cl)c1 [Oxiconazole] | 103% | 

(cont.)

Structure (SMILES)	cell viability (compound concentration: 3 uM)	cell viability [1] [%]
CC(=O)O[C@]1(C(C)=O)CC[C@H]2[C@@H]3C=C(Cl)C4=CC(=O)[C@@H]5C[C@@H]5[C@]4(C)[C@H]3CC[C@@]21C [Cyproterone Acetate]	100%	
CC(=O)O[C@]1(C(C)=O)CC[C@H]2[C@@H]3C=C(Cl)C4=CC(=O)[C@@H]5C[C@@H]5[C@]4(C)[C@H]3CC[C@@]21C	101%	
COc1ccc2cc([C@H](C)CO)ccc2c1	99.7%	
C#C[C@]1(OC(C)=O)CC[C@H]2[C@@H]3CCC4=CC(=NO)CC[C@@H]4[C@H]3CC[C@@]21CC (mixture of isomers) [Norgestimate]	80.1%	
C#C[C@]1(OC(C)=O)CC[C@H]2[C@@H]3CCC4=CC(=NO)CC[C@@H]4[C@H]3CC[C@@]21CC (mixture of isomers)	106%	
N[C@@H]1CONC1=O	99.9% and 97%	
N[C@@H]1CONC1=O [D-cycloserine]	98.7%	
N[C@@H]1CONC1=O [D-Cycloserine]	108%	
O=C(O)COCCN1CCN(C(c2ccccc2)c2ccc(Cl)cc2)CC1 (centres undefined)	108%	
O=C(O)COCCN1CCN(C(c2ccccc2)c2ccc(Cl)cc2)CC1 (centres undefined) [Cetirizine dihydrochloride]	100 ± 11%	
CCCCC(CC)CCC(CC(C)C)OS(=O)(=O)O (centres undefined)	116%	
CC(Cc1ccccc1)(NC(=O)CN)c1ccccc1 (racemic)	101%	
CCCCCCCCCCCCCCCC(=O)OC[C@@H](NC(=O)C(Cl)Cl)[C@H](O)c1ccc([N+](=O)[O-])cc1	110%	
N[C@@H](Cc1c[nH]c2ccc(O)cc12)C(=O)O [5-Hydroxy-L-tryptophan]	105%	
N[C@@H](Cc1c[nH]c2ccc(O)cc12)C(=O)O [Oxitriptan; L-5-Hydroxytryptophan;]		103
OCC1OC(n2cnc3c(NC4CCCCC4)ncnc32)C(O)C1O (centres undefined) [N6-Cyclohexyladenosine]	111%	
O=C(O)/C=C/c1ccc(O)c(O)c1 [Caffeic Acid]	86.9%	
O=C(O)/C=C/c1ccc(O)c(O)c1 [Caffeic acid]	128%	91
Clc1ccc(Cn2c(CN3CCCC3)nc3ccccc32)cc1	109%	
Clc1ccc(Cn2c(CN3CCCC3)nc3ccccc32)cc1 [Clemizole hydrochloride]	108 ± 1.4%	
COc1cc2nc(N(C)CCCNC(=O)C3CCCO3)nc(N)c2cc1OC (centres undefined) [Alfuzosin hydrochloride]	93.9 ± 3%	
COc1cc2nc(N(C)CCCNC(=O)C3CCCO3)nc(N)c2cc1OC (centres undefined)	98.7% and 103%	
CN1C[C@H](O)[C@@H](O)[C@H](O)[C@H]1CO [N-Methyl-1-deoxynojirimycin]	107%	
N=C(N)NC(=O)Cc1c(Cl)cccc1Cl [Guanfacine]	84.2%	
N=C(N)NC(=O)Cc1c(Cl)cccc1Cl [Guanfacine hydrochloride]	102 ± 10%	
N=C(N)NC(=O)Cc1c(Cl)cccc1Cl	109%	

Structure (SMILES)	cell viability (compound concentration: 3 uM)	cell viability [1] [%]
N[C@@H](Cc1cc(I)c(Oc2cc(I)c(O)c(I)c2)c(I)c1)C(=O)O [L-Thyroxine sodium salt hydrate]		93.7
N[C@@H](Cc1cc(I)c(Oc2cc(I)c(O)c(I)c2)c(I)c1)C(=O)O [L-thyroxine]	98.4%	
C=C1C[C@@]23CC[C@H]4[C@@](C)(CCC[C@@]4(C)C(=O)O)[C@@H]2CC[C@]1(O)C3 [Steviol]	121%	
O=c1cnn([C@@H]2O[C@H](CO)[C@@H](O)[C@H]2O)c(=O)[nH]1 [6-Azauridine]		93.1
O=c1cnn([C@@H]2O[C@H](CO)[C@@H](O)[C@H]2O)c(=O)[nH]1	87.1%	
O=C(OC[C@H]1O[C@@H](n2ccc(=O)[nH]c2=O)[C@H](OC(=O)c2ccccc2)[C@@H]1OC(=O)c1ccccc1)c1ccccc1 [2',3',5'-Tri-O-benzoyluridine]		99
OC[C@H]1O[C@@H](Oc2ccc3cc(Br)ccc3c2)[C@H](O)[C@@H](O)[C@H]1O [6-Bromo-2-naphthyl-beta-D-galactopyranoside]		103
CC(=O)O[C@@]12CO[C@@H]1C[C@H](O)[C@@]1(C)C(=O)[C@H](O)C3=C(C)[C@@H](OC(=O)[C@H](O)[C@@H](NC(=O)OC(C)(C)C)c4ccccc4)C[C@@](O)([C@@H](OC(=O)c4ccccc4)[C@H]21)C3(C)C [Docetaxel]	99.1 ± 5.7%	
CC(=O)O[C@@]12CO[C@@H]1C[C@H](O)[C@@]1(C)C(=O)[C@H](O)C3=C(C)[C@@H](OC(=O)[C@H](O)[C@@H](NC(=O)OC(C)(C)C)c4ccccc4)C[C@@](O)([C@@H](OC(=O)c4ccccc4)[C@H]21)C3(C)C	92.1%	
N[C@H](CO)Cc1cnc[nH]1 [L(-)-Histidinol dihydrochloride]		106
C=CC1=C(C)c2cc3[nH]c(cc4nc(cc5[nH]c(cc1n2)c(C)c5CCC(=O)O)C(CCC(=O)O)=C4C)c(C)c3C=C	64.4%	
C=CC1=C(C)c2cc3[nH]c(cc4nc(cc5[nH]c(cc1n2)c(C)c5CCC(=O)O)C(CCC(=O)O)=C4C)c(C)c3C=C [Protoporphyrin IX disodium]	35.2%	
CN(C)CCN(Cc1ccccc1)c1ccccn1 [Tripelennamine hydrochloride]	102%	
CN(C)CCN(Cc1ccccc1)c1ccccn1	105% and 94.4%	
CC1CNc2c(cccc2S(=O)(=O)N[C@@H](CCCNC(=N)N)C(=O)N2CC[C@@H](C)C[C@@H]2C(=O)O)C1 (some centres undefined)	92.8%	
CC1CNc2c(cccc2S(=O)(=O)N[C@@H](CCCNC(=N)N)C(=O)N2CC[C@@H](C)C[C@@H]2C(=O)O)C1 (some centres undefined) [Argatroban]	104 ± 2.1%	
Nc1ccn([C@@H]2O[C@H](CO)[C@@H](O)C2(F)F)c(=O)n1 [Gemcitabine]	78.3 ± 3.3%	
COc1ccccc1N1CCN(CCN(C(=O)C2CCCCC2)c2ccccn2)CC1	109%	
CN1C(=O)CC(c2ccccc2)C1=O (centres undefined) [Phensuximide]	86.6%	
C[n+]1cc2c3c(ccc2c2ccc4cc5c(cc4c21)OCO5)OCO3 [Sanguinarine chloride]	24%	
C[n+]1cc2c3c(ccc2c2ccc4cc5c(cc4c21)OCO5)OCO3	60.2 ± 58%	
Clc1ccc(CSC(Cn2ccnc2)c2ccc(Cl)cc2Cl)cc1 (centres undefined) [Sulconazole nitrate]	108%	
Clc1ccc(CSC(Cn2ccnc2)c2ccc(Cl)cc2Cl)cc1 (centres undefined)	108%	
Nc1ncnc2c1ncn2[C@@H]1O[C@H](CO)[C@@H](O)[C@H]1O [Adenosine]	105%	
Nc1ncnc2c1ncn2[C@@H]1O[C@H](CO)[C@@H](O)[C@H]1O	103%	
